Source: PubChem BioAssay AID485314 (National Center for Advancing Translational Sciences (NCATS), 2010)
“And” between values parts separate entries of the source, which are not always exact repeats. Identical values can stand only once. The campaign covered roughly 340,000 compounds. About 4,500 (1.3%) were called active. Inconclusive results, whose numbers are uncertain, are shown with a selection of clear calls. The call rests on the fitted dose curve; in most records, active means well fitted inhibition curve with a large enough effect; inconclusive means small, poorly fitted or top-dose-only effect, or another doubt; inactive means no such curve, though single readings can be large or run the other way. Potencies of inconclusive entries are doubtful fits and often do not repeat.

target: DNA polymerase beta (Homo sapiens) (UniProt P06746); experiment: qHTS Assay for Inhibitors of DNA Polymerase Beta; settings: Pol beta primer extension/strand displacement, fluorescence kinetic; activity change, negative = inhibition: at 114 µM (top of the series)
Summary of the method: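 Pol beta (10 nM) was preincubated with compound for 15 min at room temperature. The reaction was then started with 50 nM substrate and read immediately and after a further 10 min at room temperature.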
On the % scale 0 is the no-effect control and ±100 the full control effect; potency means the concentration at half of the fitted maximal effect.

Structure (SMILES)	Potency	activity change, negative = inhibition
COc1ccc2cc3cc(C(=O)Nc4ccccc4C)oc3nc2c1	inactive	–
Cc1c(Cl)cccc1NC(=O)CSCc1cc(=O)[nH][nH]1	inconclusive: 89.1 µM [inhibitor, single point]	–
NS(=O)(=O)c1ccc(NC(=O)CN2CCN(S(=O)(=O)/C=C/c3ccccc3)CC2)cc1	–	inconclusive: -34.9% [inhibitor]
CC1(C)CC(=O)C2=C(C1)N(c1ccccc1)C(N)=C(C#N)C2c1ccsc1 (centres undefined)	inconclusive: 0.112 µM [inhibitor, full curve, poor fit]	–
CNC(=O)c1cc2c(s1)CCCCCC2	inconclusive: 89.1 µM [inhibitor, single point]	–
Cc1ccc(S(=O)(=O)CCc2nc3ccccc3n2CCC#N)cc1	inconclusive: 0.112 µM [inhibitor, full curve, poor fit]	–
CC1(C)CC(N2CCCC2)=CC(=[N+]2CCCC2)C1	inactive	–
CCOC(=O)CN1C(=N)N(c2nc(NC(C)C)nc(OC)n2)CC1=O	inactive	–
COc1ccc(CN2CCNC(=O)C2CC(=O)NC2CCOCC2)cc1C (centres undefined)	inactive	–
CC(=O)c1ccc(N2CCN(C(=O)CCC(=O)c3cccs3)CC2)cc1	inactive	–
Cn1c(=O)n(CCc2ccccc2)c(=O)c2c1ncn2Cc1ccccc1	inconclusive: 39.8 µM [inhibitor, single point]	–
O=C(c1ccc(CNc2c(N3CCCC3)c(=O)c2=O)cc1)N1CCc2ccccc2C1	inactive	–
O=C(O)c1ccc(Cl)c(S(=O)(=O)N(Cc2ccccc2)c2ccc(F)cc2)c1	inconclusive: 89.1 µM [inhibitor, single point]	–
O=C(COc1cc2oc(=O)cc(-c3ccccc3)c2cc1Cl)NC(Cc1c[nH]c2ccc(O)cc12)C(=O)O (centres undefined)	inconclusive: 50.1 µM [inhibitor, partial curve]	–
CC(=O)c1ccc2c(c1)C1C=CCC1C(c1ccncc1)N2 (centres undefined)	inconclusive: 50.1 µM [inhibitor, partial curve]	–
Cc1ccc(C(=O)CC(SCC(=O)O)c2ccc([N+](=O)[O-])cc2)cc1 (centres undefined)	inactive	–
O=C(CSc1ccc(-c2nc3ccccc3[nH]2)cn1)Nc1ccc(S(=O)(=O)N2CCCC2)cc1	inconclusive: 11.2 µM [inhibitor, full curve]	–
O=C(c1cc(-c2ccco2)on1)N1CCN(c2ccccc2)CC1	inconclusive: 50.1 µM [inhibitor, single point]	–
CCOC(=O)C1CCCN(C(=O)CSc2ccc(NC(C)=O)cc2)C1 (centres undefined)	inactive	–
OCC1(Cc2ccccc2)CCN(Cc2ccc(C(F)(F)F)cc2)CC1	inconclusive: 89.1 µM [inhibitor, single point]	–
COC(=O)c1cc(OC)c(OC)cc1NC(=O)c1c(-c2ccccc2)noc1C	inconclusive: 100 µM [inhibitor, single point]	–
CCc1nnc(NS(=O)(=O)c2ccc(NC(=S)NC(=O)/C=C/c3ccc(C(C)C)cc3)cc2)s1	active: 44.7 µM	–
Cc1nc(-c2ccc(Cl)cc2)sc1C(=O)O	inconclusive: 89.1 µM [inhibitor, single point]	–

Structure (SMILES)	Potency	activity change, negative = inhibition
COc1ccc(N2C(=O)C3CCCN3C2c2ccc(C)cc2)cc1Cl (centres undefined)	inconclusive: 1.41 µM [inhibitor, full curve, poor fit]	–
CC(C)(C)C(=O)CSc1ncnc2sc3c(c12)CCC3	inconclusive: 100 µM [inhibitor, single point]	–
Cc1ccc2cccc(S(=O)(=O)Nc3ccc4c(c3)OCO4)c2n1	active: 44.7 µM	–
COc1ccc(CN(C(=O)CSc2nnc(-c3c[nH]c4ccccc34)o2)c2ccc(F)cc2)cc1OC	inconclusive: 89.1 µM [inhibitor, single point]	–
COc1ccc(NC(=S)NC(NC(=O)c2ccccc2Cl)C(Cl)(Cl)Cl)c([N+](=O)[O-])c1 (centres undefined)	inconclusive: 89.1 µM [inhibitor, single point]	–
Cc1cc(C(=O)N/N=C/c2ccc(Br)o2)n[nH]1	inactive	–
Cc1c2cnn(-c3ccccc3)c(=O)c2c(C)n1CC(=O)N1CCN(c2ccc(F)cc2)CC1	inactive	–
Cc1ccc(Cc2c(C)nc3nc(SCC(=O)NCc4ccco4)nn3c2C)cc1	active: 22.4 µM	–
Cc1ccc(NC(=O)CSc2nc3ccccc3c3nc(CCn4cncc4C)nn23)c(C)c1	inconclusive: 4.47 µM [inhibitor, full curve, poor fit] and inconclusive: 44.7 µM [inhibitor, partial curve]	–
Cc1nc2ccccc2c(=O)n1/N=C/c1ccc2ccccc2c1O	inactive	–
COc1ccc(-c2nnc(SCC(=O)NCc3ccccc3)nc2-c2ccc(OC)c(OC)c2)cc1OC	inactive	–
O=C1CC(c2ccco2)CC(O)=C1C=Nc1cc(Cl)ccc1O (centres undefined)	active: 20 µM	–
COc1ccc(C(=O)CCN2CCCCCC2)cc1	inconclusive: 25.1 µM [inhibitor, single point]	–
COC(=O)c1ccc([C@H]2Nc3ccc(S(=O)(=O)Nc4ccc(C)cc4)cc3[C@H]3C=CC[C@H]32)cc1	inconclusive: 0.158 µM [inhibitor, full curve]	–
COc1ccc2ccccc2c1C1CC(=O)N2CN(C3CCCCC3)CSC2=C1C#N (centres undefined)	active: 89.1 µM	–
CCN(CC)c1ccc(/C=N/NC(=O)c2c(-c3ccccc3)noc2C)cc1	inconclusive: 39.8 µM [inhibitor, single point]	–
O=C(N/N=C/c1cccc(OC(=O)c2ccccc2Cl)c1)c1cccnc1	inactive	–
CCN1c2ccccc2N(C)C1(C)c1ccccc1 (centres undefined)	inconclusive: 79.4 µM [inhibitor, single point]	–
O=C(NCc1ccco1)c1c[nH]c2ccc(S(=O)(=O)Nc3ccc(F)cc3F)cc2c1=O	inconclusive: 15.8 µM [inhibitor, single point]	–
O=C(NCc1ccc(Cl)cc1)C(=O)c1c[nH]c2ccccc12	inconclusive: 100 µM [inhibitor, single point]	–
COc1cccc(CNC(=O)c2ccc3c(c2)N(Cc2ccc(C(F)(F)F)cc2)C(=O)c2ccccc2S3)c1OC	inactive	–
CC1=CC=CC2=NC(=O)CC(C)(C(=O)O)N12 (centres undefined)	inconclusive: 39.8 µM [inhibitor, single point]	–
O=c1oc2ccccc2nc1/C=C(O)/C=C\c1ccccc1	inconclusive: 3.16 µM [inhibitor, full curve, poor fit]	–

Structure (SMILES)	Potency	activity change, negative = inhibition
COc1ccc(NC(=O)CC2S/C(=N\c3nccs3)N(C)C2=O)cc1 (centres undefined)	inconclusive: 100 µM [inhibitor, single point]	–
O=C(CCC(=O)N1CCN(c2ccc(O)cc2)CC1)c1cccs1	inconclusive: 12.6 µM [inhibitor, full curve]	–
COc1cc(NC(=O)C2CC(c3ccccc3O)=NO2)c(OC)cc1Cl (centres undefined)	inconclusive: 11.2 µM [inhibitor, partial curve, poor fit]	–
CCc1ccc(C(=O)NNc2ccc(Cl)cc2)cc1	inconclusive: 89.1 µM [inhibitor, single point]	–
Cc1ccc(NC(=O)C2CCN(S(=O)(=O)c3ccccc3)CC2)cc1	inactive	–
Cc1ccc(CN(C(=O)COc2ccc(Cl)c(C)c2)c2ccccn2)o1	inactive	–
O=C(CN1C(=O)COc2ccc(S(=O)(=O)N3CCOCC3)cc21)N1CCN(c2cccc(C(F)(F)F)c2)CC1	inactive	–
O=C(c1ccc(COc2c(F)c(F)c(F)c(F)c2F)o1)N1CCN(Cc2ccc3c(c2)OCO3)CC1	active: 44.7 µM	–
COc1ccc(N2CCN(C(=O)CN3C(=O)c4ccccc4S3(=O)=O)CC2)cc1	inactive	–
COc1ccc(Nc2nnc(-c3ccc(O)cc3)c3ccccc23)cc1C(N)=O	inconclusive: 89.1 µM [inhibitor, single point]	–
COC(=O)CN1C(=S)N(c2ccc(Cl)cc2)C(=O)C1CC(=O)Nc1ccccc1 (centres undefined)	inconclusive: 35.5 µM [inhibitor, single point]	–
CNC(=S)Nc1cc2oc3ccccc3c2cc1OC	inconclusive: 0.126 µM [inhibitor, full curve, poor fit]	–
CC1(C)[C@@H](O)CC[C@]2(C)[C@H]3C(=O)C=C4[C@@H]5C[C@@](C)(C(=O)O)CC[C@]5(C)CC[C@@]4(C)[C@]3(C)CC[C@@H]12	inactive	–
CN(C)CCN1C(=O)C(=O)/C(=C(/O)c2ccc(S(=O)(=O)N3CCOCC3)cc2)C1c1ccccc1 (centres undefined)	inconclusive: 89.1 µM [inhibitor, single point]	–
CCOC(=O)C1=C(C)NC(=O)/C1=C\N(C)C	inconclusive: 56.2 µM [inhibitor, partial curve, poor fit]	–
CN(C)c1ccnc(SCc2ccccc2Cl)c1C#N	inconclusive: 3.98 µM [inhibitor, full curve]	–
CCN(CC)C(=S)SCc1csc(CC(=O)Nc2ccccc2C)n1	inconclusive: 100 µM [inhibitor, single point]	–
CNC(=O)/C(C#N)=C/c1cn(CC(=O)NCc2ccco2)c2ccccc12	inconclusive: 63.1 µM [inhibitor, partial curve]	–
COc1ccc(-c2noc(N3CCN(c4cccc(Cl)c4)CC3)n2)cc1OC	inactive	–
Nc1cc2sc(-c3ccc(C(=O)O)cc3)nc2cc1Cl	inconclusive: 20 µM [inhibitor, full curve]	–
COc1ccccc1CNC(=O)COc1cc(=O)n(C)c2ccccc12	inactive	–
O=C(NCCC1=CCCCC1)C1CCN(S(=O)(=O)c2cccc3cccnc23)CC1	inconclusive: 89.1 µM [inhibitor, single point]	–
COc1ccc(S(=O)(=O)n2nc(C)c(S(=O)(=O)N3CCCCCC3)c2C)cc1OC	inactive	–
